# In article PMC7862700:
# This is a selection; strong and weak results do not stand in their true shares. At the low end of the ranking the order means little.
# Biological target: T1, ELK3 (UniProt P41970)
# T1 sequence: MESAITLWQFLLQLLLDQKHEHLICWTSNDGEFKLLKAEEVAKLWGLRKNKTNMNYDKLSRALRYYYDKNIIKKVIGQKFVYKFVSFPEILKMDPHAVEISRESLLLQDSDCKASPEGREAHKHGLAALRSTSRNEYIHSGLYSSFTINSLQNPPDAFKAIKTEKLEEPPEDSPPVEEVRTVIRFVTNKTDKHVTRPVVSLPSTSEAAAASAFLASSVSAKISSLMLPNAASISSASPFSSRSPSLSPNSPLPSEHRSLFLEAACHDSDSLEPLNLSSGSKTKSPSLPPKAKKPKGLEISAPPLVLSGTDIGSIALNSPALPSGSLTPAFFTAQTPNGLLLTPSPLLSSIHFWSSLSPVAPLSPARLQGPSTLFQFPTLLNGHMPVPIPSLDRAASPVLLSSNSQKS
# Test: DAPPL (digital affinity profiling via proximity ligation, sequencing)
# Conditions: 10 mM Tris-HCl pH 7.5, 50 mM NaCl, 1 mM DTT, 4% glycerol, room temperature, 30 min; GST-TFs on glutathione beads, 16-mer random dsDNA library, 0.1% …; high values mean tight binding; double strand, one strand shown; scale: fold enrichment (6-mer frequency, TF over GST control)
row,Sequence,binding signal
1,AAAAGG,0.986
2,TTAACG,1.32
3,TACCCT,1.41
4,ATCGTC,0.996
5,CACACT,1.24
6,ATCACT,1.18
7,AAGTCC,1.27
8,AATAGC,1.1
9,ACCAAC,1.18
10,TGGTCT,1.65
11,TGTACT,1.35
12,CATTCC,1.3
13,GCTGAA,0.994
14,TTGATA,1.01
15,CTCGTA,1.36
16,AAATTC,1.42
17,CGCTTC,2.29
18,TGTTTG,1.29
19,GTTTGG,0.999
20,AATCAA,1.14

# Look-ups from the results shown:
# For binding signal, CTCGTA is listed with 1.36
# For binding signal, TGTTTG is listed with 1.29

# Following part:

row,Sequence,binding signal
1,CTTGAC,1.23
2,CTTTTC,1.23
3,TTAAAG,1.09
4,GATTAT,1.07
5,TCTACT,1.28
6,TGGACC,0.919
7,ACATAC,1.17
8,CAATAA,1.2
9,CTGACT,1.26
10,ATCTAC,1.27
11,GAATTC,1.38
12,CTCAGA,1.02
13,AGCTCC,1.17
14,CCGCAC,1.52
15,TAGCGG,1.08
16,GATTTT,1.07
17,CGATAT,1.06
18,TTAGAA,1.06
19,TGAACT,1.19
